The list does not hold the whole screen: it gathers tests that were run many times, whatever their T/C, doses with no T/C, and many T/C values between a quarter and a half above the control. Other doses and runs of a compound stand elsewhere. T/C is the treated group as % of the vehicle group. Schedule codes are those of the source, read here as Q, the interval in days (D) or hours (H), X, the number of doses. Some T/C values carry the count of animals alive at the toxicity check (mostly the fifth day); without a count, all were alive then. Some doses have a count of surviving animals in place of a T/C: the source holds a T/C of zero for them, seemingly a mark for toxic or unscored doses. Survivors were counted at the toxicity check, usually on the fifth day, unless a day is given; later deaths do not show. Some doses were run more than once; the results are listed from low to high.
Tested on: CD8F1 mice, subcutaneous mammary adenocarcinoma, T/C%
Experiment: NCI In Vivo Anticancer Drug Screen. Data for tumor model Mammary Adenocarcinoma CD8F1 (subcutaneous) in CD8F1
Conditions: higher T/C = larger tumour
Procedure, shortened: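 Compound-treated versus vehicle-treated mice with transplantable tumors; survival or tumor size compared as T/C.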

[1] = T/C endpoint: median tumor weight change, dose: 200.0 mg/kg/injection, schedule: Q01DX001 (ip), vehicle: suspension in saline
[2] = T/C endpoint: median tumor weight change, dose: 400.0 mg/kg/injection, schedule: Q01DX001 (ip), vehicle: suspension in saline
[3] = T/C endpoint: median tumor weight change, dose: 800.0 mg/kg/injection, schedule: Q01DX001 (ip), vehicle: suspension in saline
[4] = T/C endpoint: median tumor weight change, dose: 1000.0 mg/kg/injection, schedule: Q01DX001 (ip), vehicle: Klucel (hydroxypropylcellulose) (HPC)
[5] = T/C endpoint: median tumor weight change, dose: 2000.0 mg/kg/injection, schedule: Q01DX001 (ip), vehicle: Klucel (hydroxypropylcellulose) (HPC)

CN(C)CCC(=O)C(=Cc1ccc(O)cc1)C(=O)CCN(C)C was tested, and the survivor count [1] was 0 of 10 on day 36, the survivor count (T/C endpoint: median tumor weight change, dose: 250.0 mg/kg/injection, schedule: Q01DX001 (ip), vehicle: saline) was 1 of 10 on day 36 and the survivor count [2] was 0 of 10 on day 36. For the same compound, the survivor count (T/C endpoint: median tumor weight change, dose: 500.0 mg/kg/injection, schedule: Q01DX001 (ip), vehicle: saline) was 0 of 10 on day 36, the survivor count [3] was 0 of 10 on day 36 and the survivor count (T/C endpoint: median tumor weight change, dose: 1000.0 mg/kg/injection, schedule: Q01DX001 (ip), vehicle: saline) was 0 of 10 on day 36.

For C#CCNC1=C(C)C(=O)C2=C(C1=O)[C@H](COC(N)=O)[C@]1(OC)[C@@H]3N[C@@H]3CN21, the survivor count (T/C endpoint: median tumor weight change, dose: 62.0 mg/kg/injection, schedule: Q01DX001 (ip), vehicle: distilled water + Tween-80) was 1 of 10 on day 28, the survivor count (T/C endpoint: median tumor weight change, dose: 125.0 mg/kg/injection, schedule: Q01DX001 (ip), vehicle: distilled water + Tween-80) was 0 of 10 on day 28 and the survivor count (T/C endpoint: median tumor weight change, dose: 250.0 mg/kg/injection, schedule: Q01DX001 (ip), vehicle: distilled water + Tween-80) was 0 of 10 on day 28. The survivor count (T/C endpoint: median tumor weight change, dose: 500.0 mg/kg/injection, schedule: Q01DX001 (ip), vehicle: distilled water + Tween-80) was 0 of 10 on day 28.

For [N-]=[N+]=[N-], the survivor count (T/C endpoint: median tumor weight change, dose: 48.0 mg/kg/injection, schedule: Q01DX001 (ip), vehicle: saline) was 0 of 10 on day 31.

With CN1C(=O)NC(c2ccc(Cl)cc2)(c2ccc(Cl)cc2)C1=O the T/C (T/C endpoint: median tumor weight (est.), dose: 50.0 mg/kg/injection, schedule: Q07DX005 (ip), vehicle: distilled water + Tween-80, evaluated on day 30) was 136 % of control, the T/C (T/C endpoint: median tumor weight (est.), dose: 200.0 mg/kg/injection, schedule: Q07DX005 (ip), vehicle: distilled water + Tween-80, evaluated on day 30) was 145 % of control and the survivor count (T/C endpoint: median tumor weight (est.), dose: 400.0 mg/kg/injection, schedule: Q07DX005 (ip), vehicle: distilled water + Tween-80) was 6 of 10 on day 30. For the same compound, the survivor count (T/C endpoint: median tumor weight (est.), dose: 800.0 mg/kg/injection, schedule: Q07DX005 (ip), vehicle: distilled water + Tween-80) was 2 of 10 on day 30 and the survivor count (T/C endpoint: median tumor weight change, dose: 2000.0 mg/kg/injection, schedule: Q01DX001 (ip), vehicle: distilled water + Tween-80) was 0 of 10 on day 30.

In the case of CCOC(OCC)C(=O)OCC(=O)[C@]1(O)Cc2c(O)c3c(c(O)c2[C@@H](OC2CC(N)C(O)C(C)O2)C1)C(=O)c1c(OC)cccc1C3=O (stereo not given in full), the survivor count (T/C endpoint: median tumor weight (est.), dose: 8.0 mg/kg/injection, schedule: Q07DX005 (ip), vehicle: saline) is reported as 2 of 10 on day 30, the survivor count (T/C endpoint: median tumor weight (est.), dose: 16.0 mg/kg/injection, schedule: Q07DX005 (ip), vehicle: saline) is reported as 0 of 10 on day 30 and the survivor count (T/C endpoint: median tumor weight (est.), dose: 16.0 mg/kg/injection, schedule: Q07DX005 (ip), vehicle: water) is reported as 1 of 10 on day 30. For the same compound, the survivor count (T/C endpoint: median tumor weight (est.), dose: 32.0 mg/kg/injection, schedule: Q07DX005 (ip), vehicle: water) was 0 of 10 on day 30.

In the case of CC1=C(/C=C/C(C)=C/C=C/C(C)=C/C=O)C(C)(C)CCC1, the survivor count (T/C endpoint: median tumor weight change, dose: 250.0 mg/kg/injection, schedule: Q01DX001 (ip), vehicle: saline with Tween-80) is reported as 2 of 10 on day 33, the survivor count (T/C endpoint: median tumor weight change, dose: 500.0 mg/kg/injection, schedule: Q01DX001 (ip), vehicle: saline with Tween-80) is reported as 0 of 10 on day 33 and the survivor count (T/C endpoint: median tumor weight change, dose: 1000.0 mg/kg/injection, schedule: Q01DX001 (ip), vehicle: saline with Tween-80) is reported as 0 of 10 on day 33.

With CC[C@H](CC[C@@H](C)C1CC[C@H]2[C@@H]3CC=C4C[C@@H](OP(=O)(N5CC5)N5CC5)CC[C@]4(C)[C@H]3CC[C@]12C)C(C)C (stereo not given in full) the T/C (T/C endpoint: median tumor weight (est.), dose: 25.0 mg/kg/injection, schedule: Q07DX005 (ip), vehicle: saline with Tween-80, evaluated on day 30) was 138 % of control [9 of 10 alive on day 30].

With CCc1ncnc2cc(OCC3CO3)c(OC)cc12 (stereo not given) the survivor count (T/C endpoint: median tumor weight change, dose: 50.0 mg/kg/injection, schedule: Q01DX001 (ip), vehicle: suspension in saline) was 0 of 10 on day 29, the survivor count (T/C endpoint: median tumor weight change, dose: 100.0 mg/kg/injection, schedule: Q01DX001 (ip), vehicle: suspension in saline) was 0 of 10 on day 29 and the survivor count [1] was 0 of 10 on day 36 and 6 of 10 on day 29. The survivor count [2] was 0 of 10 on day 36 and the survivor count [3] was 0 of 10 on day 29.

C/C=C/c1cc2c(c(=O)o1)C(=O)[C@@H](O)[C@H](C)O2 was tested, and the survivor count (T/C endpoint: median tumor weight (est.), dose: 400.0 mg/kg/injection, schedule: Q07DX005 (ip), vehicle: saline with Tween-80) was 4 of 10 on day 30.

For C[C@@](O)(/C=C/[C@H]1CC=CC(=O)O1)[C@@H](C[C@@H](O)\C=C/C=C\C=C\CO)OP(=O)(O)O, the survivor count (T/C endpoint: median tumor weight change, dose: 125.0 mg/kg/injection, schedule: Q01DX001 (ip), vehicle: other) was 0 of 10 on day 41 and the survivor count (T/C endpoint: median tumor weight change, dose: 250.0 mg/kg/injection, schedule: Q01DX001 (ip), vehicle: other) was 0 of 10 on day 41.

CCOC(=O)C1(c2ccccc2)C(=O)Oc2ccccc21 (stereo not given) was tested, and the T/C (T/C endpoint: median tumor weight change, dose: 250.0 mg/kg/injection, schedule: Q01DX001 (ip), vehicle: saline with Tween-80, evaluated on day 33) was 129 % of control.

In the case of CC1CCC(n2cnc3c(Cl)ncnc32)O1 (stereo not given), the survivor count [4] is reported as 0 of 10 on day 27 and 1 of 10 on day 26 and the survivor count [5] is reported as 0 of 10 on day 26 and 0 of 10 on day 27.

For CC1=CC2C(O)(CC(CO)=CC3C4C(C)(C)C4(OC(=O)c4ccccc4)C(OC(=O)c4ccccc4)C(C)C32O)C1=O (stereo not given), the T/C (T/C endpoint: median tumor weight change, dose: 2.5 mg/kg/injection, schedule: Q01DX001 (ip), vehicle: saline with Tween-80, evaluated on day 35) was 132 % of control and the survivor count (T/C endpoint: median tumor weight change, dose: 10.0 mg/kg/injection, schedule: Q01DX001 (ip), vehicle: saline with Tween-80) was 0 of 10 on day 35.

For O=Cc1ccc([N+](=O)[O-])s1, the survivor count (T/C endpoint: median tumor weight (est.), dose: 100.0 mg/kg/injection, schedule: Q07DX005 (ip), vehicle: saline with Tween-80) was 4 of 10 on day 30 and the survivor count (T/C endpoint: median tumor weight (est.), dose: 200.0 mg/kg/injection, schedule: Q07DX005 (ip), vehicle: saline with Tween-80) was 0 of 10 on day 30.

For O=C1NC(=O)/C(=C/C=C/c2ccccc2)S1, the T/C (T/C endpoint: median tumor weight (est.), dose: 50.0 mg/kg/injection, schedule: Q07DX005 (ip), vehicle: saline with Tween-80, evaluated on day 30) was 134 % of control and the T/C (T/C endpoint: median tumor weight (est.), dose: 400.0 mg/kg/injection, schedule: Q07DX005 (ip), vehicle: saline with Tween-80, evaluated on day 30) was 136 % of control [9 of 10 alive].

For C[C@@]12C(=O)OC(=O)[C@]1(C)[C@H]1CC[C@@H]2O1, the T/C (T/C endpoint: median tumor weight change, dose: 0.62 mg/kg/injection, schedule: Q01DX001 (ip), vehicle: Klucel (hydroxypropylcellulose) (HPC), evaluated on day 36) was 130 % of control, the T/C (T/C endpoint: median tumor weight change, dose: 2.5 mg/kg/injection, schedule: Q01DX001 (ip), vehicle: Klucel (hydroxypropylcellulose) (HPC), evaluated on day 36) was 139 % of control [9 of 10 alive on day 36] and the survivor count (T/C endpoint: median tumor weight change, dose: 5.0 mg/kg/injection, schedule: Q01DX001 (ip), vehicle: Klucel (hydroxypropylcellulose) (HPC)) was 6 of 10 on day 36.

For CC(=O)OC1COC(NC(=O)N(CCCl)N=O)C(OC(C)=O)C1OC(C)=O (stereo not given), the T/C (T/C endpoint: median tumor weight (est.), dose: 3.0 mg/kg/injection, schedule: Q07DX005 (ip), vehicle: saline with Tween-80, evaluated on day 30) was 138 % of control and the survivor count (T/C endpoint: median tumor weight (est.), dose: 24.0 mg/kg/injection, schedule: Q07DX004 (ip), vehicle: saline with Tween-80) was 0 of 10 on day 30.

N#CC(OC1OC(COC2OC(CO)C(O)C(O)C2O)C(O)C(O)C1O)c1ccccc1 (stereo not given) was tested, and the survivor count (T/C endpoint: median tumor weight (est.), dose: 1600.0 mg/kg/injection, schedule: Q07DX005 (ip), vehicle: water) was 6 of 10 on day 30.

Cc1ccc(S(=O)(=O)NC(=O)OC23COCN2COC3)cc1 was tested, and the T/C (T/C endpoint: median tumor weight change, dose: 250.0 mg/kg/injection, schedule: Q01DX001 (ip), vehicle: water, evaluated on day 28) was 145 % of control and the T/C (T/C endpoint: median tumor weight change, dose: 1000.0 mg/kg/injection, schedule: Q01DX001 (ip), vehicle: saline with Tween-80, evaluated on day 28) was 129 % of control.

With Clc1ccc(C2SC=Cc3ccccc32)cc1 (stereo not given) the survivor count (T/C endpoint: median tumor weight change, dose: 500.0 mg/kg/injection, schedule: Q01DX001 (ip), vehicle: Klucel (hydroxypropylcellulose) (HPC)) was 0 of 10 on day 28, the survivor count [4] was 0 of 10 on day 28, 0 of 10 on day 36, 0 of 10 on day 39 and the survivor count [5] was 1 of 10 on day 39.

With O=NN(CCCl)C(=O)NC1[C@H](O)CCC[C@@H]1O (stereo not given in full) the survivor count (T/C endpoint: median tumor weight change, dose: 25.0 mg/kg/injection, schedule: Q01DX001 (ip), vehicle: saline) was 0 of 10 on day 35, the survivor count (T/C endpoint: median tumor weight change, dose: 50.0 mg/kg/injection, schedule: Q01DX001 (ip), vehicle: saline) was 0 of 10 on day 28 and 0 of 10 on day 35 and the survivor count (T/C endpoint: median tumor weight change, dose: 100.0 mg/kg/injection, schedule: Q01DX001 (ip), vehicle: saline) was 0 of 10 on day 28.

Reference: PubChem BioAssay AID220 (DTP/NCI, 2004)
